# These are yes or no findings as the source states them, for the method shown. In cells and extracts the contact can be indirect. Some entries that bind do so weakly or less than the wild type. For some assays here: Tags and fused reporters may be left off the sequences shown.
# Sequences of proteins named here, by UniProt entry; tags and fusion partners are left off. Residues count along the entry.
# UniProt Q00657, residues 30-2326: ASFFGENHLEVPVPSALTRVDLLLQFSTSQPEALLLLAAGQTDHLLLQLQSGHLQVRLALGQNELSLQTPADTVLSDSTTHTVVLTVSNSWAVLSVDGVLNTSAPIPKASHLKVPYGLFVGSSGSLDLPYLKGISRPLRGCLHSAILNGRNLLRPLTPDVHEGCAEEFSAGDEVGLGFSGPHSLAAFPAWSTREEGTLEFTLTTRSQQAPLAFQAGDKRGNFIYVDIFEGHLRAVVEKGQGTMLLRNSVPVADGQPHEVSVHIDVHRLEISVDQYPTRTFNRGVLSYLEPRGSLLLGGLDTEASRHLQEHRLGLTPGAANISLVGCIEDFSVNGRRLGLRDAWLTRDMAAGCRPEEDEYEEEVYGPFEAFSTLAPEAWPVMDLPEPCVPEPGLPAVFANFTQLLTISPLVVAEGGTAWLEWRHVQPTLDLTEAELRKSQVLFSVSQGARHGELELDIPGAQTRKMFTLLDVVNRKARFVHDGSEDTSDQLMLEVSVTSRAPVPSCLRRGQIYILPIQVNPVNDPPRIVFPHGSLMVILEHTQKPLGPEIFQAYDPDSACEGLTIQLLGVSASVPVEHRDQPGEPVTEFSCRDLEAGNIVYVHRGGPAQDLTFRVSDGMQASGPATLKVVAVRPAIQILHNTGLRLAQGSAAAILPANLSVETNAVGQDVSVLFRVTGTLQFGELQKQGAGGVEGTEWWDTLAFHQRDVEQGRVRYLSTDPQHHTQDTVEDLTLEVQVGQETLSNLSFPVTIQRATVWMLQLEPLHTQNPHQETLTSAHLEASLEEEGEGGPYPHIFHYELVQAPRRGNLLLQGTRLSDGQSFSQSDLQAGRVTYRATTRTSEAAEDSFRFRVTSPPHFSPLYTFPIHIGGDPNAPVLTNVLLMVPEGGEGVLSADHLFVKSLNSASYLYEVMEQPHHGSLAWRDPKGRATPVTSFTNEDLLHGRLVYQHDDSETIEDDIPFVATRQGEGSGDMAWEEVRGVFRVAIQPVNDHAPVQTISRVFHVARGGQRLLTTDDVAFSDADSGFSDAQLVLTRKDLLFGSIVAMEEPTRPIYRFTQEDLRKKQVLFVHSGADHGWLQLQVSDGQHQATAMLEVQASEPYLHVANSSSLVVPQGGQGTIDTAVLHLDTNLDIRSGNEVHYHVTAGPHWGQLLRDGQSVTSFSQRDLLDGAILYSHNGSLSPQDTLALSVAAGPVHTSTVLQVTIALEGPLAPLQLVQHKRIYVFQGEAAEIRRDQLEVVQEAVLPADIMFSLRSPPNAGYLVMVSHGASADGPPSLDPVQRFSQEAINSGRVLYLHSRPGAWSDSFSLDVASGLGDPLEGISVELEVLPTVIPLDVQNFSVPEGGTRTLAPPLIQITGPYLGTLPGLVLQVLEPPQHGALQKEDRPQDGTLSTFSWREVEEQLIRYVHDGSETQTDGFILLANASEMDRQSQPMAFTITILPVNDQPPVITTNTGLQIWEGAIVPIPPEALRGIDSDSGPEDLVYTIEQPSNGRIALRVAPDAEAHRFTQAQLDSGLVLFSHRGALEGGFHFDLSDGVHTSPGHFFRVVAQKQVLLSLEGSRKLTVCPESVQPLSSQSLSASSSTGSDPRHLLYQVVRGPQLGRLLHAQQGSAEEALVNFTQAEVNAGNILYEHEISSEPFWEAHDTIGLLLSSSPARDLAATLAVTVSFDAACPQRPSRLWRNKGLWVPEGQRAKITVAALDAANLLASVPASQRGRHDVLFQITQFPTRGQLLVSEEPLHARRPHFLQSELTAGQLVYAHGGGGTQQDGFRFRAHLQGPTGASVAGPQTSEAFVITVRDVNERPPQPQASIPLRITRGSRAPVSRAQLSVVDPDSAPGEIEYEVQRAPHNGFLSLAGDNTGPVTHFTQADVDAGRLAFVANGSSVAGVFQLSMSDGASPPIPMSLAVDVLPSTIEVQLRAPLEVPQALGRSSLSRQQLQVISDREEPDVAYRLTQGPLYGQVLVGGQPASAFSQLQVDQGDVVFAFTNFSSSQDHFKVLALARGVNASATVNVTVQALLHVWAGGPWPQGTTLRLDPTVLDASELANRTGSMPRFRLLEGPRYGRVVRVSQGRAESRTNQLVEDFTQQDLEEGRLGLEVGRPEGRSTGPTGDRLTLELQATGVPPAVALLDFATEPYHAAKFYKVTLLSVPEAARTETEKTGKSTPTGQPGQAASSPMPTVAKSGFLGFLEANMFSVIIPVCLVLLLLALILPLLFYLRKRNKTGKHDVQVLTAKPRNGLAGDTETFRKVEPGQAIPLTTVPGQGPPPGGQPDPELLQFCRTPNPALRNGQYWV
# T1: Stonin1, endogenous (mouse lung) (mouse (endogenous in lung)) (UniProt Q8CDJ8)
# T1 sequence: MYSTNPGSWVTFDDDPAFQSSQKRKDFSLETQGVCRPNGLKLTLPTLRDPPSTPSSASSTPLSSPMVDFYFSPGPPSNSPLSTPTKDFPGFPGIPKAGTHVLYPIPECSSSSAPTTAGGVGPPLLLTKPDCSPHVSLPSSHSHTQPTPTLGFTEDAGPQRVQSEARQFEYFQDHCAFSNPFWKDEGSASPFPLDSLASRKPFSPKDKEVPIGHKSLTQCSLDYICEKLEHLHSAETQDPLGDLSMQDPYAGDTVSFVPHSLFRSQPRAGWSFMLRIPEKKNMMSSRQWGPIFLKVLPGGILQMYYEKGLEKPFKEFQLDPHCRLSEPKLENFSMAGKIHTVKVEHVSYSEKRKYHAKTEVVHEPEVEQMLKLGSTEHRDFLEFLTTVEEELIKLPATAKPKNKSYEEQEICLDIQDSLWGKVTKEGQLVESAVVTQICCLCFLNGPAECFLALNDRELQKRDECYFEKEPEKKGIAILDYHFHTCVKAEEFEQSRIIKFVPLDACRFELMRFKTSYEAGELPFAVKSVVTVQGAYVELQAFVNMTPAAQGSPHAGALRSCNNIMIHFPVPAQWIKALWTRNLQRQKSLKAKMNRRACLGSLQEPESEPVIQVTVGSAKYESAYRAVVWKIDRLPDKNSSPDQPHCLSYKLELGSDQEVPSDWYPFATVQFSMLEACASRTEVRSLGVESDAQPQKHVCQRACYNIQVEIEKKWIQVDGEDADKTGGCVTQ
# B1: vinculin, endogenous (mouse lung) (protein, UniProt Q64727 1-1066)
# chain: MPVFHTRTIESILEPVAQQISHLVIMHEEGEVDGKAIPDLTAPVAAVQAAVSNLVRVGKETVQTTEDQILKRDMPPAFIKVENACTKLVQAAQMLQSDPYSVPARDYLIDGSRGILSGTSDLLLTFDEAEVRKIIRVCKGILEYLTVAEVVETMEDLVTYTKNLGPGMTKMAKMIDERQQELTHQEHRVMLVNSMNTVKELLPVLISAMKIFVTTKNSKNQGIEEALKNRNFTVEKMSAEINEIIRVLQLTSWDEDAWASKDTEAMKRALASIDSKLNQAKGWLRDPNASPGDAGEQAIRQILDEAGKVGELCAGKERREILGTCKMLGQMTDQVADLRARGQGASPVAMQKAQQVSQGLDVLTAKVENAARKLEAMTNSKQSIAKKIDAAQNWLADPNGGPEGEEQIRGALAEARKIAELCDDPKERDDILRSLGEIAALTSKLGDLRRQGKGDSPEARALAKQVATALQNLQTKTNRAVANSRPAKAAVHLEGKIEQAQRWIDNPTVDDRGVGQAAIRGLVAEGHRLANVMMGPYRQDLLAKCDRVDQLTAQLADLAARGEGESPQARALASQLQDSLKDLKAQMQEAMTQEVSDVFSDTTTPIKLLAVAATAPPDAPNREEVFDERAANFENHSGRLGATAEKAAAVGTANKSTVEGIQASVKTARELTPQVISAARILLRNPGNQAAYEHFETMKNQWIDNVEKMTGLVDEAIDTKSLLDASEEAIKKDLDKCKVAMANIQPQMLVAGATSIARRANRILLVAKREVENSEDPKFREAVKAASDELSKTISPMVMDAKAVAGNISDPGLQKSFLDSGYRILGAVAKVREAFQPQEPDFPPPPPDLEQLRLTDELAPPKPPLPEGEVPPPRPPPPEEKDEEFPEQKAGEVINQPMMMAARQLHDEARKWSSKGNDIIAAAKRMALLMAEMSRLVRGGSGTKRALIQCAKDIAKASDEVTRLAKEVAKQCTDKRIRTNLLQVCERIPTISTQLKILSTVKATMLGRTNISDEESEQATEMLVHNAQNLMQSVKETVREAEAASIKIRTDAGFTLRWVRKTPWYQ
# B2: HA-tagged Stonin1-μHD (Stonin1-405-730) (domain or fragment, UniProt Q8CDJ8 405-730)
# chain: YEEQEICLDIQDSLWGKVTKEGQLVESAVVTQICCLCFLNGPAECFLALNDRELQKRDECYFEKEPEKKGIAILDYHFHTCVKAEEFEQSRIIKFVPLDACRFELMRFKTSYEAGELPFAVKSVVTVQGAYVELQAFVNMTPAAQGSPHAGALRSCNNIMIHFPVPAQWIKALWTRNLQRQKSLKAKMNRRACLGSLQEPESEPVIQVTVGSAKYESAYRAVVWKIDRLPDKNSSPDQPHCLSYKLELGSDQEVPSDWYPFATVQFSMLEACASRTEVRSLGVESDAQPQKHVCQRACYNIQVEIEKKWIQVDGEDADKTGGCVTQ
# What was measured:
# [1] = biological target: T1, Stonin1, endogenous (mouse lung) (mouse (endogenous in lung)); assay: co-IP; bead-coupled Stonin1-specific antibodies incubated with WT and Stonin1-/- mouse lung lysate, 1-4 h at 4 °C; immunoblot
# [2] = biological target: NG2, full-length, overexpressed (UniProt Q00657); assay: co-IP; beads coupled to NG2-specific antibodies incubated with lysates of HEK293T cells overexpressing full-length NG2 and HA-tagged Stonin1 variants; immunoblot with NG2 and HA antibodies
Binder,binding [1],binding [2]
B1,binds,–
B2,–,binds

# Source: article PMC4600748
